Earlier results on two compounds are cited in patent publication US11129897B2, “Fast-acting plant-based medicinal compounds and nutritional supplements” (RECEPTOR HOLDINGS, INC., priority 2016, dated 2021).

The conditions of this series: in words; cited from earlier work.

Regarding `C=C(C)[C@@H]1CCC(C)=C[C@H]1c1c(O)cc(CCCCC)cc1O` [CBD, cannabidiol], the solubility in water result is “very low or no solubility in water”.
In the case of `CCCCCc1cc(O)c2c(c1)OC(C)(C)[C@@H]1CCC(C)=C[C@@H]21` [THC, delta-9-tetrahydrocannabinol], the solubility in water result is “very low or no solubility in water”.
